Results on 24 molecules are retold here after patent publication US7718651B2, “Inhibitors of FtsZ and uses thereof” (priority 2002, dated 2010).

One data set deals with Vero cells. As to the kind of experiment: Cytotoxicity in Vero cells (MTS assay). The data set is classed as cell-based.
Conditions: not given
On the technique in general: Formazan colour is commonly taken as a measure of viable cells.
Turning to `CCOC(=O)Nc1cc(NC(C)CCCN(CC)CC)c2nc(-c3ccccc3)c(-c3ccccc3)nc2n1` (centres unmarked) [SRI-3072, [8-(4-Diethylamino-1-methyl-butylamino)-2,3-diphenyl-pyrido[2,3-b]pyrazin-6-yl]-carbamic acid ethyl ester], the “SI (IC50/MIC99)” value amounted to 42.0.
With `CCOC(=O)Nc1cc2c(c(N)n1)N=C(c1ccccc1)CCN2` [SRI-7614, (1-Amino-8-phenyl-6,7-dihydro-5H-2,5,9-triaza-benzocyclohepten-3-yl)-carbamic acid ethyl ester], the “SI (IC50/MIC99)” value is reported as more than 32.

The data set is the same for the next values; noted with them: IC50/MIC, Table 8.
In the case of `CCOC(=O)Nc1cc(NC(C)CCCN(CC)CC)c2nc(-c3ccccc3)c(-c3ccccc3)nc2n1` (centres unmarked) [Compound A1], the SI amounted to 21.5.
Still for that read-out and setting: then `CCOC(=O)Nc1cc2c(c(N)n1)N=C(c1ccccc1)CCN2` [Compound A2], with more than 32.
Molecule `CCOC(=O)Nc1cc(NC(C)CCCN(CC)CC)c2ncc(-c3ccc(Cl)c(Cl)c3)nc2n1.Cl.Cl` (centres unmarked) [Compound A7] registered an SI of 0.6.
Take `CCOC(=O)Nc1cc(N)c(N)c(NC(C)C(O)c2ccccc2)n1` (centres unmarked) [Compound A10]: the SI is on record as more than 16.
`CC(C)OC(=O)Nc1cc2c(c(N)n1)N=C(c1ccccc1)[C@H](C)N2` [Compound A11]: the SI is 0.12.
The molecule `CCOC(=O)Nc1cc2c(c(N)n1)N=C(c1ccc3c(c1)OCO3)[C@H](C)N2` [Compound A12] returned an SI of 0.12.
The same measure, in the same setting: then `CCOC(=O)Nc1cc(NC(C)CCCN(CC)CC)c2nc(-c3ccccc3)c(-c3ccccc3)nc2n1.Cl` (centres unmarked) [Compound A21], with 83; and `CCOC(=O)Nc1cc(NC(C)CCCN(CC)CC)c2ncc(-c3ccc(OC)cc3)nc2n1.Cl` (centres unmarked) [Compound A22], with 5.58.
Regarding `C[C@@H]1Nc2cc(NC(=O)OCc3ccccc3)nc(N)c2N=C1c1ccccc1` [Compound A26], the SI was 0.12.
Same read-out and setting: then `CCOC(=O)Nc1cc(NCc2ccc(S(N)(=O)=O)cc2)c2nc(-c3ccccc3)c(-c3ccccc3)nc2n1` [Compound A33], with more than 16.
`CCOC(=O)Nc1cc(NC(C)CCCN(CC)CC)c2nc(-c3ccc(Cl)cc3)cnc2n1.Cl.Cl` (centres unmarked) [Compound A34]: the SI is given as 0.36.
Take `CCOC(=O)Nc1cc(NC(C)C(O)COc2ccccc2)c(N)c(N)n1` (centres unmarked) [Compound A35]: the SI is recorded as more than 80.
With `CCOC(=O)Nc1cc2[nH]c(-c3ccc4c(c3)OCO4)nc2c(NC(c2ccccc2)c2ccccc2)n1` [Compound A39], the SI is listed as more than 128.21.
Regarding `CCCCC1=Nc2c(cc(NC(=O)OCC)nc2N)NC1C` (centres unmarked) [Compound A41], the SI is recorded as 0.12.
The same measure, in the same setting: then `CCOC(=O)Nc1cc2c(c(N)n1)N=C(c1ccc(OC)cc1)C(C)N2` (centres unmarked) [Compound A44], with 0.12; and `CCOC(=O)Nc1cc2[nH]c(-c3ccc(OC)cc3)nc2c(NC(c2ccccc2)c2ccccc2)n1` [Compound A46], with 60.47.
`CCOC(=O)Nc1cc2[nH]c(-c3ccccc3)nc2c(NC(c2ccccc2)c2ccccc2)n1` [Compound A52] gave an SI of more than 16.
Molecule `CCOC(=O)Nc1cc2c(c(N)n1)N=C(CN(C)c1ccccc1)CN2` [Compound A53] yielded an SI of less than 0.03.

The same data set, now with this note: Vero IC50 / H37Rv MIC99, Table 3.
Turning to `CCOC(=O)Nc1cc(NCc2ccc(S(N)(=O)=O)cc2)c2nc(-c3ccccc3)c(-c3ccccc3)nc2n1` [Compound 4427-026-15, [2,3-Diphenyl-8-(4-sulfamoyl-benzylamino)-pyrido[2,3-b]pyrazin-6-yl]-carbamic acid ethyl ester], the “SI (IC50:MIC99)” value is listed as more than 16.
The same measure, in the same setting: then `CCOC(=O)Nc1cc(NC(C)CCCN(CC)CC)c2nc(-c3ccccc3)c(-c3ccccc3)nc2n1` (centres unmarked) [SRI-3072, [8-(4-Diethylamino-1-methyl-butylamino)-2,3-diphenyl-pyrido[2,3-b]pyrazin-6-yl]-carbamic acid ethyl ester], with 42.
`CCOC(=O)Nc1cc(NC(C)C(O)COc2ccccc2)c(N)c(N)n1` (centres unmarked) [SRI-7405, [5,6-Diamino-4-(2-hydroxy-1-methyl-3-phenoxy-propylamino)-pyridin-2-yl]-carbamic acid ethyl ester]: the “SI (IC50:MIC99)” value is listed as more than 80.
Regarding `CCOC(=O)Nc1cc2c(c(N)n1)N=C(c1ccccc1)CCN2` [SRI-7614, (1-Amino-8-phenyl-6,7-dihydro-5H-2,5,9-triaza-benzocyclohepten-3-yl)-carbamic acid ethyl ester], the “SI (IC50:MIC99)” value is on record as more than 32.

The data set is the same for the next values; noted with them: ratio IC50 / MIC.
With `CCOC(=O)Nc1cc(NC(C)CCCN(CC)CC)c2ncc(-c3ccc(C(F)(F)F)cc3)nc2n1` (centres unmarked) [Compound A23], the SI is 0.26.
On the same count and under the same terms, then `CCOC(=O)Nc1cc(NC(C)CCCN(CC)CC)c2nc(-c3ccc(F)cc3)cnc2n1` (centres unmarked) [Compound A25], with 0.54.
